Measurements as given in patent US10647673B2, “Acetophenone compound, preparation method thereof, and application thereof in fatty liver prevention and treatment” (Nanjing Bioenergy Medicine Science & Technology Co., Ltd., priority 2017, dated 2020).
At least one structure is not confirmed: it was looked up by name or label, or the drawing left a doubt.

Columns and labels:
[1] = system: Fatty Liver Diseases of SD Rats; assay: Blood serum lipids in SD rats given lipid emulsion (fatty liver model); format: in vivo; details: after 14 days of continuous administration
Experimental: 500 g of lard oil was taken, placed in a container, and heated to melt. When the temperature rose to 100° C., it was added with 200 g of cholesterol to dissolve completely, and then further added with 20 g of propylthiouracil. The resulted mixture was stirred well, and added with 500 ml of Tween 80 after dissolution, resulting in an oil phase. At the same time, 600 mL of distilled water and 400 mL of 1,2-propanediol were taken and heated to 60° C. in a water bath, then were added with 40 g of sodium deoxycholate. The resulted mixture was stirred well until realizing complete dissolution, so as to give an aqueous phase. […]
Male SD rats weighing 180-200 g were fed adaptively for 7 days. […] After fasting for 12 hours, 1 mL of blood was collected from the orbits of the animals, and was determined by Hitachi Automatic Biochemical Analyzer 7080 for serum cholesterol (CHO), triglyceride (TG), low density lipoprotein (LDL-C) and high density lipoprotein (HDL-C).
The modeled rats were continued with the intragastric administration of the lipid emulsion. […] The animals were measured for the body weight once a week, and were observed. After 14 days of continuous administration, 1 mL of blood was collected from the orbits, and was determined for the contents of triglyceride, cholesterol, low density lipoprotein and high density lipoprotein in blood serum.

FXR = target: T1, FXR (Homo sapiens, UniProt Q96RI1); details: cited from earlier work
T1 sequence (Q96RI1 1-486): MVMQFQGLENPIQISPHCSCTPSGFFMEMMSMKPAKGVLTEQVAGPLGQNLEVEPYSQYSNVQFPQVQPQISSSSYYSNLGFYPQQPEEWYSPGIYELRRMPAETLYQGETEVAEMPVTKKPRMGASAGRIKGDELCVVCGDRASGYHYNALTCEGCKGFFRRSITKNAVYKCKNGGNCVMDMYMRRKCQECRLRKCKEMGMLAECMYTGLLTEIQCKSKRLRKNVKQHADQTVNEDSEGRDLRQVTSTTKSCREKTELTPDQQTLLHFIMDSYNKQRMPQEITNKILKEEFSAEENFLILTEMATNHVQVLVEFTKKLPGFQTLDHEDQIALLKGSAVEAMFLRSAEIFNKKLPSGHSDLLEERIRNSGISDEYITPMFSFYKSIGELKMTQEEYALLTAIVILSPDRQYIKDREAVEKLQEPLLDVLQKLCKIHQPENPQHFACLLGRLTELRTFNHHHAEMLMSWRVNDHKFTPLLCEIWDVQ

In the case of `CC[C@H]1[C@@H](O)[C@@H]2[C@H](CC[C@]3(C)[C@@H]([C@H](C)CCC(=O)O)CC[C@@H]23)[C@@]2(C)CC[C@@H](O)C[C@@H]12` [Obeticholic Acid, Obeticholic acid, reference compound], the “blood lipid levels (in words)” value [1] is given as “no blood lipid-reducing effect” and the “agonistic effect on FXR relative to chenodeoxycholic acid” value (FXR) is given as 100 times.
